Data taken from US20030215913A1.
Results are given in words; binding and its absence hold for the method and conditions named. A result given as binding can be weak or reduced; the word gives no strength.

Target: TGF-beta 1.2 (Homo sapiens (Human))
Experiment: BIAcore 2000 SPR, LP226 amine-coupled to CM5 chip, ligand injected

B1: LP226 (protein)
chain: RARPDMFCLFHGKRYSPGESWHPYLEPQGLMYCLRCTCSEGAHVSCYRLHCPPVHCPQPVTEPQQCCPKCVEPHTPSGLRAPPKSCQHNGTMYQHGEIFSAHELFPSRLPNQCVLCSCTEGQIYCGLTTCPEPGCPAPLPLPDSCCQACKDEASEQSDEEDSVQSLHGVRHPQDPCSSDAGRKRGPGTPAPTGLSAPLSFIPRHFRPKGAGSTTVKIVLKEKHKKACVHGGKTYSHGEVWHPAFRAFGPLPCILCTCEDGRQDCQRVTCPTEYPCRHPEKVAGKCCKICPEDKADPGHSEISSTRCPKAPGRVLVHTSVSPSPDNLRRFALEHEASDLVEIYLWKLVKGIFHLTQIKKVRKQDFQKEAQHFRLLAGPHEGHWNVFLAQTLELKVTASPDKVTKT
binding: binds
